According to the supplement of paper PMC12578635:
The list shows a part of the results. Rule as the data show it: active = 150% or more and inactive = the rest. Most values come without repeats; read them as rough.

Each molecule was assayed on Staphylococcus aureus JE2-lux inside RAW 264.7 macrophages (assay: intracellular bacterial bioluminescence relative to DMSO vehicle; higher = higher intracellular bacterial metabolic activity). Conditions: 10 µM; treatment time 4 h; gentamicin 50 µg/ml.
Procedure: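 RAW 264.7 macrophages infected with bioluminescent MRSA JE2-lux (MOI 100) were dispensed into 384-well plates with 10 µM compound in the presence of 50 µg/ml gentamicin. After 4 h at 37 °C, bacterial bioluminescence (a proxy for intracellular bacterial metabolic activity) and host cell viability (CellTiter-Fluor) were read and normalised to 0.1% DMSO vehicle controls. Single-pass screen of the UNC CICBDD kinase-targeted library (>4,700 compounds).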

Intracellular bacterial bioluminescence, inactive:
O=C1c2ccncc2C(=O)N1CNc1ccc(Br)cc1 96.2%, CCCCC(=O)N1CCN(c2nn3c(NC(C)(C)C)c(-c4cccc(C)c4)nc3s2)CC1 104%, COc1ccc2cc(CN(C)Cc3n[nH]c4c3CCCC4)c(OC)nc2c1 71%, Cc1ccc(CNC(=O)c2cnc3c(c(C)nn3-c3ccccc3)c2NCc2ccc(Cl)cc2)o1 77.5%, CCC(=O)Nc1nc(-c2ccc3c(c2)OCCO3)cs1 98%, O=C(CN1C(=O)CC(c2ccccc2)Sc2ccccc21)Nc1ccc(F)cc1F (stereo not drawn) 65.6%, CCc1nc(-c2csc(S(=O)(=O)N3CCC(C(=O)N4CCc5ccccc5C4)CC3)c2)no1 65%, O=C(OCn1nnc2ccccc2c1=O)c1cccs1 89.2%, COc1ccc(CC(=O)N2CCC(c3nnc(C(=O)Nc4ccccc4C)s3)CC2)cc1OC 50.5%, O=C(CSc1nc(-c2ccccc2Cl)ns1)Nc1nccs1 52.9%, O=C(/C=C/c1ccc2c(c1)OCO2)NCCc1csc2nc(-c3ccc(F)cc3)nn12 75.8%, COc1cccc(C2C3=C(CCCC3=O)Nc3nc(SC(C)C)[nH]c(=O)c32)c1 (stereo not drawn) 108%, CCOc1ccc(NC(=O)CN2C(=O)C(c3ccc(OC)cc3)=NC23CCCCC3)cc1 56%, N#Cc1ccc(CSc2ncccc2C(=O)O)cc1 116%, COc1ccc(CCn2c(C)c(C)n3c4c(=O)n(CC(N)=O)c(=O)n(C)c4nc23)cc1OC 124%, Cc1ccc(NC(=O)CSCC(=O)NCC2OCCc3ccccc32)cc1C (stereo not drawn) 78.1%, Cc1ccc(-c2nc(CCNC(=O)CCc3cc(Cl)no3)n[nH]2)cc1 115%, COc1cc(OC)c(NC(=O)C(C)Sc2nnc(-c3ccncc3)o2)cc1Cl (stereo not drawn) 84.7%, N#Cc1c(N)nc(SCc2ccccc2)c(C#N)c1C1CCCCC1 34%, CC1=C(C(=O)OCc2ccccc2)C(c2cccc(Br)c2)NC(=S)N1 (stereo not drawn) 55.9%, Cc1cccc(C)c1NC(=O)C(C)n1cnc2onc(-c3ccc(Cl)cc3)c2c1=O (stereo not drawn) 126%, CC(=O)Nc1ccc2c(=O)cc(-c3ccccc3F)oc2c1 149%, Cc1ccc(-c2nc3n(CC(=O)Nc4ccc(Br)cc4)c4c(c(=O)n3n2)CCC4)cc1 80.9%, O=C(CSc1nc(=O)n2cc(Cl)ccc2n1)NC1CCCCC1 57.1%, O=C(COc1ccc2ccccc2c1)NCC1COC2(CCCC2)O1 (stereo not drawn) 65.6%, Cc1c(C(=O)NC(c2ccccc2)c2cccnc2)[nH]c2ccccc12 (stereo not drawn) 98.2%, O=C(NCCC1=CCCCC1)C(=O)Nc1ccc(F)c(F)c1 109%, Cc1cc(=O)[nH]c2ccc(S(=O)(=O)Nc3ccc(Br)cc3)cc12 95.9%, Cc1cc(F)ccc1S(=O)(=O)Oc1ccc2oc3ccccc3c2c1 106%, O=c1n(Cn2nnc3ccccc32)nc(C(F)(F)F)c2cccn12 123%, Cc1cc(C)n2nc(C(=O)NCc3ccc(N4CCCC4=O)cc3)cc2n1 130%, CC(=O)c1ccc(Nc2nc3c(S(=O)(=O)c4ccccc4)nnn3c3ccc(Cl)cc23)cc1 96.3%, Cc1cc(C)c(NS(=O)(=O)c2ccc3c4c(cccc24)C(=O)N3)c(C)c1 81.3%, O=S(=O)(NCCCc1nc2cc3ccccc3cc2[nH]1)c1ccc2c(c1)OCCO2 114%, CC1CCCN(S(=O)(=O)c2ccc(C(=O)Nc3nc4c(s3)CSc3ccccc3-4)cc2)C1 (stereo not drawn) 74.9%, COc1ccc(C(=O)CSc2nc3cc4c(cc3cc2C#N)OCO4)cc1 71.5%, Cc1ccc(Oc2ccc(CNC(=O)C(C)N3C(=O)NC(C)(C)C3=O)cc2)cc1 (stereo not drawn) 95.5%, Cc1nn(C)c(C)c1CNC(=O)c1cc2c(-c3cccs3)nn(-c3ccccc3)c2n1C 10.9%, Cc1ccc(CNC(=O)CCCn2c(=S)[nH]c3ccc(Br)cc3c2=O)cc1 90%, Cc1cc(C)c(NC(=O)CSC2=C(C#N)C(c3ccco3)CC(=O)N2)c(C)c1 (stereo not drawn) 20.2%, O=C(NCc1ccnc(N2CCCCC2)c1)Nc1cccc(Br)c1 18.2%, Cc1ccc(-c2csc(-n3nc(C)c(CC(=O)N4CCN(c5ccc(F)cc5)CC4)c3O)n2)cc1 94.8%, CCOC(=O)c1[nH]c2ccccc2c1NC(=S)Nc1cccc(C(F)(F)F)c1 77.7%, O=C1c2ccccc2-c2nn(C(=O)c3ccccc3)c3cccc1c23 91.9%, Cc1cc2cc3c(N)c(C(=O)Nc4nonc4C)sc3nc2cc1C 107%, CC(C)(C)n1nc2c(c1NC(=O)COc1ccccc1)CS(=O)(=O)C2 122%, O=C(Nc1ccc(F)cc1)N1CCC(c2nc3ccccc3o2)CC1 95.3%, Cc1ccc(NC(=O)c2cnn3c(=O)c4c([nH]c23)CCC4)cc1 99%, O=C(Nc1ccc(F)c(Cl)c1)C(=O)Nc1ccc2c(c1)OCCO2 85.9%, Cc1ccc(N2C(=O)SC(Nc3ccccc3C(=O)O)C2=O)cc1C (stereo not drawn) 121%, COc1ccccc1NC(=O)N1CCCC1C(=O)Nc1cccc2ccccc12 (stereo not drawn) 115%, Cc1ccc2sc(NC(=O)c3ccc(N4C(=O)CCC4=O)cc3)nc2c1C 96.8%, Cc1cc(C)n(-c2cc(N3CCN(c4cc(Cl)ccc4C)CC3)ncn2)n1 102%, Cc1cc(NC(=O)c2cccc(C(F)(F)F)c2)nc2c1c(=O)oc1ccccc12 99.3%, CCCn1c(SCC(=O)Nc2ccccc2CC)nc2c(oc3ccccc32)c1=O 96.3%, CCOc1ccc2cc(C#N)c(SCC(=O)Nc3ccccc3C(F)(F)F)nc2c1 91.9%, COc1cc(C(=O)Oc2ccc3oc(=O)cc(-c4cc5ccccc5o4)c3c2)cc(OC)c1OC 126%, CCOC(=O)c1sc(NC(=O)CSc2nc3c(=O)n(C)c(=O)n(C)c3n2C)nc1C 92.8%
